Values of other authors, collected in patent publication US12364696B2, “Treatment of autoimmune disease” (priority 2019, dated 2025).
At least one structure is not confirmed: it was looked up by name or label, or the drawing left a doubt.

Test system: patients with alopecia areata
Conditions: oral ruxolitinib 20 mg twice daily for 6 months; cited from earlier work

For `N#CC[C@H](C1CCCC1)n1cc(-c2ncnc3[nH]ccc23)cn1` [ruxolitinib], the Response rate is given as 68.4%.
